Test results: PubChem BioAssay AID504834 (National Center for Advancing Translational Sciences (NCATS), 2011)
Screen size: about 320,000 compounds; about 22,000 (6.9%) were called active. Inconclusive results, whose numbers are uncertain, are shown with a selection of clear calls. Calls come from the whole dose curve; as a rule, active = well fitted inhibition curve with a large enough effect; inconclusive = small, poorly fitted or top-dose-only effect, or another doubt; inactive = no such curve, though single readings can be large or run the other way. Where the call is inconclusive, the potency comes from a doubtful curve fit.

Assay: Primary qHTS for delayed death inhibitors of the malarial parasite plastid, 96 hour incubation
Settings: P. falciparum luciferase reporter growth; series mostly up to 28.7 µM; activity change, negative = inhibition: at the top concentration
Outline: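 Compounds incubated with erythrocytes infected by luciferase-expressing P. falciparum (2% hematocrit, 0.05% parasitemia final) for 96 hours, 37 C in 5% CO2. Growth inhibition scored as decreased luciferase luminescence.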
% is set by controls: 0 for no effect and ±100 for the full control effect; potency is the fitted concentration of half-maximal effect.

Row | Structure (SMILES) | Potency | activity change, negative = inhibition
1 | O=C(c1ccc(N2CCOCC2)c([N+](=O)[O-])c1)N1CCN(Cc2ccccc2)CC1 | inconclusive: 1.47 µM [inhibitor, full curve, poor fit] | 
2 | Cn1nc(-c2ccccc2)c(C(O)c2ccccc2C(F)(F)F)c1Cl (configuration not stated) | inconclusive: 3.29 µM [inhibitor, full curve, poor fit] | 
3 | CN1C(=O)CCC1c1cccnc1 (configuration not stated) | active: 1.07 µM | 
4 | CCCC1CCC(c2ccc(C(=O)NN)cc2)CC1 (configuration not stated) |  | inactive: 50%
5 | N#C/C(=C\c1c(N(Cc2ccccc2)Cc2ccccc2)nc2ccccn2c1=O)C(N)=O | inconclusive: 4.15 µM [inhibitor, single point] | 
6 | CC(NC(=O)c1ccc(N)cc1)c1ccccc1 (configuration not stated) |  | inactive: -5.12%
7 | O=C1OC(Nc2ccc(Br)cn2)c2ccccc21 (configuration not stated) |  | inactive: 30.2%
8 | C=CCNC(=S)N(CC)c1cccc2ccccc12 |  | inactive: -27.7%
9 | C[C@H]1CCCC(=O)CCC/C=C/c2cc(O)cc(O)c2C(=O)O1 | active: 13.1 µM | 
10 | COc1ccccc1-c1nc2ccccc2nc1-c1ccccc1OC | inconclusive: 18.5 µM [inhibitor, single point] | 
11 | CCCc1nnc(SCC(=O)Nc2ccc(Cl)cc2Cl)o1 | inconclusive: 11.7 µM [inhibitor, partial curve, poor fit] | 
12 | COc1ccc2c(/C=N/Nc3ccc(C(=O)O)cc3)c[nH]c2c1 |  | inactive: 43.5%
13 | COc1ccccc1NC(=O)c1c(Nc2ccccc2F)sc(C(=O)Nc2cccc(Cl)c2)c1N | inconclusive: 10.4 µM [inhibitor, single point] | 
14 | c1ccc2c(NC3CCCC3)nnc(NC3CCCC3)c2c1 | inconclusive: 10.4 µM [inhibitor, single point] | 
15 | COCCn1c(SCC(=O)NCCc2ccccc2)nc2c([nH]c3ccccc32)c1=O | inconclusive: 0.0657 µM [inhibitor, full curve, poor fit] | 
16 | Cc1cc(C)cc(OCC(=O)Nc2cnn(CCCC(=O)O)c2)c1 | inconclusive: 18.5 µM [inhibitor, single point] | 
17 | Cc1cc(C)cc(OCC(=O)NNC(=O)c2cc3ccccc3oc2=O)c1 | inconclusive: 13.1 µM [inhibitor, single point] | 
18 | O=C(COC(=O)C12CC3CC(CC(C3)C1)C2)NC12CC3CC(CC(C3)C1)C2 | inconclusive: 16.5 µM [inhibitor, partial curve, poor fit] | 
19 | O=C(c1ccc(C(F)(F)F)cc1)N1CCC(=O)N(C(COCc2ccccc2)Cc2ccccc2)CC1 (configuration not stated) | active: 8.28 µM | 
20 | Cc1cc(C)cc(NS(=O)(=O)c2c(C(=O)N3CCCCCC3)c(C)n(C)c2C)c1 | inconclusive: 18.5 µM [inhibitor, single point] | 
21 | CC(=O)Nc1ccc(S(=O)(=O)N2CCC3(CC2)CC(=O)c2ccccc2O3)cc1 | inconclusive: 6.57 µM [inhibitor, partial curve, poor fit] | 
22 | CCN(CC)C(=O)CSc1nc2ccc(NC(=O)CSc3nnc(N)s3)cc2s1 | inconclusive: 7.38 µM [inhibitor, partial curve, poor fit] | 
23 | CN(C)C(Cc1ccccc1)C(=O)c1ccc(-c2ccccc2)cc1 (configuration not stated) | inconclusive: 8.28 µM [inhibitor, partial curve, poor fit] | 
24 | O=C1CC(c2nc3ccccc3[nH]2)CN1c1cccc(C(F)(F)F)c1 (configuration not stated) | inconclusive: 7.38 µM [inhibitor, partial curve, poor fit] | 

Looked up by compound from above, 2 records:
Row | Structure (SMILES) | Potency | activity change, negative = inhibition
11 | CCCc1nnc(SCC(=O)Nc2ccc(Cl)cc2Cl)o1 | inconclusive: 11.7 µM [inhibitor, partial curve, poor fit] | 
17 | Cc1cc(C)cc(OCC(=O)NNC(=O)c2cc3ccccc3oc2=O)c1 | inconclusive: 13.1 µM [inhibitor, single point] | 

The list continues:

Row | Structure (SMILES) | Potency | activity change, negative = inhibition
25 | CC(=O)N1N=C(c2ccc(C)cc2)CC1c1ccco1 (configuration not stated) | inconclusive: 3.7 µM [inhibitor, partial curve, poor fit] | 
26 | O=C(N/N=C/c1cn(Cc2ccccc2)c2ccccc12)c1cccnc1 |  | inactive: 15.3%
27 | COc1ccccc1C(=O)COC(=O)c1ccccc1OCC(=O)Nc1ccc(SC(F)F)cc1 | inconclusive: 11.7 µM [inhibitor, partial curve, poor fit] | 
28 | NC(=O)Nn1c(CCC(=O)O)ccc1-c1ccc(Cl)cc1 |  | inactive: 49.3%
29 | COC(=O)c1ccc(NC(=O)CN(C)Cc2cccc(F)c2)cc1 | inconclusive: 6.57 µM [inhibitor, partial curve, poor fit] | 
30 | COC(=O)C1=C(O)/C(=C\c2cc(C)n(-c3ccc(F)cc3)c2C)N=C1C |  | inactive: 6.84%
31 | COc1ccc(S(=O)(=O)Nc2ccccn2)cc1 |  | inactive: -16.7%
32 | Cc1cccc(N2C(=O)/C(=C/N3CCN(C(=O)c4ccco4)CC3)C(=O)NC2=S)c1 |  | inactive: 10.9% [at 5.75 µM]
33 | CC(C)Cn1c(SCC(=O)NCc2ccc(Cl)cc2)nnc1-c1cccc(S(=O)(=O)N2CCOCC2)c1 | active: 9.28 µM | 
34 | CCOC(=O)C1CCCN(C(=O)c2cc3ncc(Br)cn3n2)C1 (configuration not stated) | inconclusive: 10.4 µM [inhibitor, single point] | 
35 | Cc1ccsc1C(=O)OCC(=O)NCc1ccc(Cl)cc1 |  | inactive: 99.2%
36 | COc1nc(Nc2ccccc2F)nc(OC)n1 |  | inactive: 11.5%
37 | CSc1ncccc1C(=O)OCc1ccc(COC(=O)c2cccnc2SC)cc1 |  | inactive: -1.24%
38 | CN(c1ccccc1)P(=O)(N(C)c1ccccc1)N(C)c1ccccc1 | inconclusive: 18.5 µM [inhibitor, single point] | 
39 | Nc1ccc(CCC(=O)N2CCCC2)cc1 | inconclusive: 0.0093 µM [inhibitor, full curve, poor fit] | 
40 | O=C(CSc1nnnn1C1CCCCC1)NCc1ccc2c(c1)OCO2 | inconclusive: 13.1 µM [inhibitor, single point] | 
41 | COC(=O)c1cc(-c2ccc(Cl)cc2)n(-c2ccc(S(N)(=O)=O)cc2)n1 | inconclusive: 18.5 µM [inhibitor, single point] | 
42 | CCOC(=O)N1CCN(Cc2nnc(-c3ccccc3Cl)o2)CC1 | inconclusive: 1.47 µM [inhibitor, full curve] | 
43 | COc1ccc(C(CC(=O)Nc2ccccc2OC)n2cccc2)cc1 (configuration not stated) | inconclusive: 11.7 µM [inhibitor, single point] | 
44 | Cc1ccccc1NC(=S)/C(=C(\[O-])c1ccc(C)c([N+](=O)[O-])c1)[n+]1ccccc1 |  | inactive: -23.1%
45 | Cc1ccc(NC(=O)C2CCCN2C(=O)NC2CCCCC2)c(C)c1 (configuration not stated) | inconclusive: 18.5 µM [inhibitor, single point] | 
46 | O=C(NC(=S)Nc1cc(-c2nc3ccccc3[nH]2)ccc1Cl)c1ccc2c(c1)OCO2 | inconclusive: 5.86 µM [inhibitor, partial curve, poor fit] | 
47 | CCCNC(=O)c1ccc2c(=O)c(O)c(-c3ccc(Cl)c([N+](=O)[O-])c3)[nH]c2c1 | inconclusive: 18.5 µM [inhibitor, single point] | 
48 | O=C(Nc1nccs1)C(Br)C(Br)c1ccccc1 (configuration not stated) |  | inactive: 146%

Row | Structure (SMILES) | Potency | activity change, negative = inhibition
49 | CN(c1ccccc1)c1nc(N2CCCC2)nc(-n2ccnc2)n1 | inconclusive: 0.104 µM [inhibitor, full curve, poor fit] | 
50 | Cc1ccc(C(=O)N(C)c2nnc(-c3ccncc3)s2)cc1 |  | inactive: 0.281%
51 | COc1ccc(-n2c(C)cc(C(=O)CCl)c2C)cc1 | inconclusive: 10.4 µM [inhibitor, single point] | 
52 | CCCn1c2ccc(C)cc2c2n[nH]c(=S)nc21 |  | inactive: 4.98%
53 | O=C(c1n[nH]c(=O)c2ccccc12)N1CCN(C2c3ccccc3-c3ccccc32)CC1 | inconclusive: 10.4 µM [inhibitor, single point] | 
54 | O=S(=O)(c1ccc(OC(F)(F)F)cc1)N1CCCC(N2CCOCC2)C1 (configuration not stated) |  | inactive: 224%
55 | Cc1cc(C(C)(C)C)c(OC(=O)[C@@H]2OC(c3ccccc3)=C[C@H]2c2ccccc2)c(C(C)(C)C)c1 | inconclusive: 2.94 µM [inhibitor, full curve, poor fit] | 
56 | Cc1ccc2nc(/C(C#N)=C\c3ccc(Oc4ccc([N+](=O)[O-])cn4)cc3)[nH]c2c1 | inconclusive: 18.5 µM [inhibitor, single point] | 
57 | C/C(=N\Nc1ccccc1Cl)c1ccc(-n2ccnc2)cc1 | inconclusive: 11.7 µM [inhibitor, partial curve] | 
58 | O=C(CN(C(=O)CCC(=O)Nc1ccccn1)c1cccc(F)c1)NCc1ccco1 |  | inactive: 10.7%
59 | O=C(CSc1nnc(NC(=O)c2c(F)cccc2F)s1)NCc1ccccc1 |  | inactive: 19.4%
60 | COC(=O)c1ccc(CSc2nnc(NCc3ccccc3)s2)o1 | inconclusive: 11.7 µM [inhibitor, single point] | 
61 | COc1cc(-c2noc(C)c2C(=O)NCCc2c[nH]c3ccccc23)cc(OC)c1OC | active: 14.7 µM | 
62 | O=C(CSc1nc2ccccc2[nH]1)NCc1ccco1 |  | inactive: -21.3%
63 | C=CCn1c(C)c(/C=C/c2cc[n+](C)cc2)c2ccccc21 |  | inactive: 3.81%
64 | O=C(CCN1CCN(CCO)CC1)N1c2ccccc2Sc2ccc(C(F)(F)F)cc21 | inconclusive: 19 µM [inhibitor, single point] | 
65 | O=C1Cc2cc(NS(=O)(=O)c3ccc(Cl)cc3)cc3c2N1CCC3 |  | inactive: 62.3%
66 | CC(C)C(NC(=O)c1ccccc1)C(=O)N1CCCCCC1 (configuration not stated) |  | inactive: -3.87%
67 | COc1ccccc1/C=C1\SC(=S)N(CCC(=O)N2CCCCC2CCO)C1=O (configuration not stated) | inconclusive: 9.28 µM [inhibitor, single point] | 
68 | COc1ccccc1NC(=O)C1=C(C)Nc2nc3ccccc3n2C1c1cccs1 (configuration not stated) | inconclusive: 18.5 µM [inhibitor, single point] | 
69 | Cc1cc(=O)[nH]c(SCC(=O)N2CCC(C(N)=O)CC2)n1 | inconclusive: 2.62 µM [inhibitor, full curve, poor fit] | 
70 | CCn1cnc2sc(C)c(C)c2c1=O |  | inactive: -16.7%
71 | CC(C)C(=O)NNC(=O)CN1CCN(c2nc(-c3ccccc3)cs2)CC1 |  | inactive: 8.86%
72 | CCOc1ccc(CCNC(=O)COC(=O)CSc2ccccc2C)cc1OCC | inconclusive: 4.65 µM [inhibitor, partial curve, poor fit] | 
